The list shows a part of the results.
Assays:
Assay in all cases: log2 fold change, soluble protein after heating vs DMSO (PISA); higher = thermal stabilisation; K562 lysate, 10 uM; active = over 0.2 and 3.5 SD of the protein, either way, in both replicates (recomputed)
lapatinib = compound: CS(=O)(=O)CCNCc1ccc(-c2ccc3ncnc(Nc4ccc(OCc5cccc(F)c5)c(Cl)c4)c3c2)o1 [lapatinib]
Outline: (§1)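 A 30 min treatment with 10 μM compound was applied to crude K562 extract at 1 mg/mL protein in PBS pH 7.4 with 1 mM MgCl2. Heating for 3 min spanned 48°C-58°C, after which aliquots were pooled, adjusted to 0.5% NP-40 at 4°C and spun at 21,000xg for 90 min. TMTpro 16plex LC-MS/MS of the supernatant, with channel sums equalised, gave values recorded as log-two fold change in thermal stability against solvent controls, from duplicates.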

Protein sequences, listed by entry. Tags and fused reporters are not part of them. Lines headed by an entry give the natural chain unless they say otherwise; changes in a name come on top.
UniProt Q5SRE5: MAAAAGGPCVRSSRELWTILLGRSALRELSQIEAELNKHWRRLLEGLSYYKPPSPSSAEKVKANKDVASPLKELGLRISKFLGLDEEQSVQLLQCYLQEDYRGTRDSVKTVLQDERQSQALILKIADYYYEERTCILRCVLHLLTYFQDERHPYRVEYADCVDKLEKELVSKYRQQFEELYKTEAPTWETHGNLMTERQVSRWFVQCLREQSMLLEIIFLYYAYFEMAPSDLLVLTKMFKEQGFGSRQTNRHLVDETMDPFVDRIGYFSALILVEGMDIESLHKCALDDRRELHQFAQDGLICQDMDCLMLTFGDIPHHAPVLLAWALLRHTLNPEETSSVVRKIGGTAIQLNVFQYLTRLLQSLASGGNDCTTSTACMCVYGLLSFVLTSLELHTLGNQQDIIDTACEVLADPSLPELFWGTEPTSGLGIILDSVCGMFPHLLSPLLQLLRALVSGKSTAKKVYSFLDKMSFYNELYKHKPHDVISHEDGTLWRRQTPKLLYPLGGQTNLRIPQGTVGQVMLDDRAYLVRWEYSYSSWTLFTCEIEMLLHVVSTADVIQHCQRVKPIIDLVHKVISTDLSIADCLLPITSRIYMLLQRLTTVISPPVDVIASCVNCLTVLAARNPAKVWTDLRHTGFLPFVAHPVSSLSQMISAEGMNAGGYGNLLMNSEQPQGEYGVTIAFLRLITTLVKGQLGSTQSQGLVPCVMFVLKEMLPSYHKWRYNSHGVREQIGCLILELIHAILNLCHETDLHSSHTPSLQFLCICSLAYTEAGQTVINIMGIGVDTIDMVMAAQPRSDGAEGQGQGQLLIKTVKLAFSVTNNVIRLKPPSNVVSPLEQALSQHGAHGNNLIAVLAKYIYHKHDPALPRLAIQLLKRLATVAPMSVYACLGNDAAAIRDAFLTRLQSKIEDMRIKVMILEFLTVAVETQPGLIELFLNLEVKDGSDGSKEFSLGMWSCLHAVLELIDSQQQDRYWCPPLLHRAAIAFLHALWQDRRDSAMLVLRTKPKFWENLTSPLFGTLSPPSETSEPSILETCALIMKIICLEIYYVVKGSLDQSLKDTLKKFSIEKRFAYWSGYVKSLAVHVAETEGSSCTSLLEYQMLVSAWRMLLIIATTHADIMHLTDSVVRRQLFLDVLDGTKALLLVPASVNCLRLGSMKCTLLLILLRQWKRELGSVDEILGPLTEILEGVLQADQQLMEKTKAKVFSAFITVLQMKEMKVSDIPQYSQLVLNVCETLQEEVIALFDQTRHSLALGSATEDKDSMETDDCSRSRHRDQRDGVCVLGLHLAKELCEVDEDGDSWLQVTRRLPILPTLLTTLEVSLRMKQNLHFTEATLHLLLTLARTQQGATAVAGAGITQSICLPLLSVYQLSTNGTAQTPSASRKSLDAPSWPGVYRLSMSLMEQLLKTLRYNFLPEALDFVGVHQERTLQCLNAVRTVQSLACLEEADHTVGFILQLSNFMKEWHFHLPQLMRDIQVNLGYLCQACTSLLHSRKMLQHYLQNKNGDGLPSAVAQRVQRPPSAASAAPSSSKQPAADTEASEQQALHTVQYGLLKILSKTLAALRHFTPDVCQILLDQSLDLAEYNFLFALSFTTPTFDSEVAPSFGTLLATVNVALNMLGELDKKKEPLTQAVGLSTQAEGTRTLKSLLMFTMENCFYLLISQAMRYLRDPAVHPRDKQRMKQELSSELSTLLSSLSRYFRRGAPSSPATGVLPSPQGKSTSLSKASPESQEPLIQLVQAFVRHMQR
UniProt Q01804: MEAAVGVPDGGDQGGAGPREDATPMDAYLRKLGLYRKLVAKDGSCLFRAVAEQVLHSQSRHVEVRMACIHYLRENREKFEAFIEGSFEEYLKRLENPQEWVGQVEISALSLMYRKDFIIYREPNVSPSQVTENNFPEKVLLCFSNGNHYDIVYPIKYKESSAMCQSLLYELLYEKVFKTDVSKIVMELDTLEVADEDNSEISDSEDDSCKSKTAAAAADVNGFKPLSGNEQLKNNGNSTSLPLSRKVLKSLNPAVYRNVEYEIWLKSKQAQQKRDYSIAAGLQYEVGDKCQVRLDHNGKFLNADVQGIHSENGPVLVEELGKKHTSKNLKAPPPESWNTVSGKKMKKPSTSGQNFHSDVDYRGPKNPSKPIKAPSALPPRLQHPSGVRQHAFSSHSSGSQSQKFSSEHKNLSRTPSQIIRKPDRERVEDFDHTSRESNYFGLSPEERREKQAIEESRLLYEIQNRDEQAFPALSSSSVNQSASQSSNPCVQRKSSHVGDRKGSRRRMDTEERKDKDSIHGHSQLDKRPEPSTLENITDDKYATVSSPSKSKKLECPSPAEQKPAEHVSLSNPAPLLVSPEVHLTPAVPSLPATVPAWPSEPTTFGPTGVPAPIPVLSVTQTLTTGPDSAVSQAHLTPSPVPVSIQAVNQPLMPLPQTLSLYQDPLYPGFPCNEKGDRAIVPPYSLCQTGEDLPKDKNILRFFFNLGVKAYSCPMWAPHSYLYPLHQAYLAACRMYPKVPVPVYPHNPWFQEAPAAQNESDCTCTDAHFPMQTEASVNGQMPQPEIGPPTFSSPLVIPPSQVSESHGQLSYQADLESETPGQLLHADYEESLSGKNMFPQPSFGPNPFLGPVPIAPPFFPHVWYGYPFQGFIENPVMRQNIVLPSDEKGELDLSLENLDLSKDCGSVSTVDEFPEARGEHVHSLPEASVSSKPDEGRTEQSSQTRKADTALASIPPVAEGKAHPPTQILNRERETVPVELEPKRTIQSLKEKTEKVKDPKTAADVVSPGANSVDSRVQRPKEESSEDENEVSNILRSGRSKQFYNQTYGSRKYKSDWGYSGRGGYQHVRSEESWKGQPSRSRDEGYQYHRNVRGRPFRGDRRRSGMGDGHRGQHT
UniProt Q13438: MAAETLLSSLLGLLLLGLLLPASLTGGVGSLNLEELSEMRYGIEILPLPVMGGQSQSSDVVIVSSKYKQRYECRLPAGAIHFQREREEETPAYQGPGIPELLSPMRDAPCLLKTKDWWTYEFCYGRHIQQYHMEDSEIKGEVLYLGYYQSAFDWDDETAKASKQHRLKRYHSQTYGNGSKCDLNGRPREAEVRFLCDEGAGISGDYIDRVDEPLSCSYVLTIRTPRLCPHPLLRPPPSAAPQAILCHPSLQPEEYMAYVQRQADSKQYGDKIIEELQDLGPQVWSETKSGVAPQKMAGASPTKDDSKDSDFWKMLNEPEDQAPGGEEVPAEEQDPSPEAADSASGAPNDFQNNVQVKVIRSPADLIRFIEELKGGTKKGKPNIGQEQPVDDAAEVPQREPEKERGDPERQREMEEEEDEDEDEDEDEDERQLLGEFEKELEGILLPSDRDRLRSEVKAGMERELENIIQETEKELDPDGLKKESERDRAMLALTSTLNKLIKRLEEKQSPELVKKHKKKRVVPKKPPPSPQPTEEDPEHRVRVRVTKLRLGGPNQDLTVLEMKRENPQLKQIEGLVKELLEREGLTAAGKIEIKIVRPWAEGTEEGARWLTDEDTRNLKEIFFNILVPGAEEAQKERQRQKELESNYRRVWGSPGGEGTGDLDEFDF
UniProt Q9Y530: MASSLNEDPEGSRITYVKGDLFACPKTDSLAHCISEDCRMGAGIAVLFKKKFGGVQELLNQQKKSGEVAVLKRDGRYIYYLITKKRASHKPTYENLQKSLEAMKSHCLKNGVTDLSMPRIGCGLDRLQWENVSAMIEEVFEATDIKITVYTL
UniProt Q96E52: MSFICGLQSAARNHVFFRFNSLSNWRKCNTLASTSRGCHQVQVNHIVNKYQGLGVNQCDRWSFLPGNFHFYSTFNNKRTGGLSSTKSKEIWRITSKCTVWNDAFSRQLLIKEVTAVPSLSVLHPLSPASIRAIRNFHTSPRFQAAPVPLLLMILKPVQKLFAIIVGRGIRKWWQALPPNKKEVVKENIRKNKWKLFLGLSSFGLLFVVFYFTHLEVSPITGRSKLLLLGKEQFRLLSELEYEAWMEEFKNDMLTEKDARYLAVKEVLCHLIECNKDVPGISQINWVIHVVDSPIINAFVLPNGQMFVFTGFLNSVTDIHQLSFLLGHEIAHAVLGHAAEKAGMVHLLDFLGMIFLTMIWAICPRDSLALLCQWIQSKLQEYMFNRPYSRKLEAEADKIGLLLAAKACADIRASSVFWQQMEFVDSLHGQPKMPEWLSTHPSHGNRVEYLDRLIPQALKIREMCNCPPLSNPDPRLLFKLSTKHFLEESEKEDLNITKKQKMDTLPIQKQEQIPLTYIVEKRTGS
UniProt Q99567: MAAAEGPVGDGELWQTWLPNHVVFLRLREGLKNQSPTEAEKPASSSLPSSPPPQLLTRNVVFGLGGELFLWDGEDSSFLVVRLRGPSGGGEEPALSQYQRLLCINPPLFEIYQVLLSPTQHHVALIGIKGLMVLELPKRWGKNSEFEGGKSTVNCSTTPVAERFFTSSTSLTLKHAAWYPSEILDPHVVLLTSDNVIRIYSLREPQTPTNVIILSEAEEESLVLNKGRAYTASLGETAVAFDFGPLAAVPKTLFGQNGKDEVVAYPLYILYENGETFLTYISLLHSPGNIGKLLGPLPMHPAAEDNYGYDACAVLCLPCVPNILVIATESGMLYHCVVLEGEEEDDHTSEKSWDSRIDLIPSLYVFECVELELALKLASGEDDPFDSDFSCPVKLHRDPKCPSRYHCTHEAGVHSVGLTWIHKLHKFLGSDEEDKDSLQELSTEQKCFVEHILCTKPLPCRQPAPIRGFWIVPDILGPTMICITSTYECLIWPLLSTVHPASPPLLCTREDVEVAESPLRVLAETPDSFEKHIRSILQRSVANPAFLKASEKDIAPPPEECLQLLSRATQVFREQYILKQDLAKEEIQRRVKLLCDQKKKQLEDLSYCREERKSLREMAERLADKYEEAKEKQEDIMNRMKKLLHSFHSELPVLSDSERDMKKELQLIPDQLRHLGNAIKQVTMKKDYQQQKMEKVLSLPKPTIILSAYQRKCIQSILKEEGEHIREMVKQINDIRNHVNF
UniProt Q9NWT1: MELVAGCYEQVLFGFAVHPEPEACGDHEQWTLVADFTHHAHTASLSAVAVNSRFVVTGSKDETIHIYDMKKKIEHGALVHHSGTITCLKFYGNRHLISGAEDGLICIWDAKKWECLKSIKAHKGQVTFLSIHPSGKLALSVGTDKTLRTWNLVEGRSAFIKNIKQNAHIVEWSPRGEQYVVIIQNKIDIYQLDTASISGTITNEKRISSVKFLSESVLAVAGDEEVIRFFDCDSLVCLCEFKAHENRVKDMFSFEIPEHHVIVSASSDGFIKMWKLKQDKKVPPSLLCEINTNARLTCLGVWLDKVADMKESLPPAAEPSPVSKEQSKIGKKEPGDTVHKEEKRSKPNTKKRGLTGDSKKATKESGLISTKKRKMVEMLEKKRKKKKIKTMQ
UniProt A6NDB9: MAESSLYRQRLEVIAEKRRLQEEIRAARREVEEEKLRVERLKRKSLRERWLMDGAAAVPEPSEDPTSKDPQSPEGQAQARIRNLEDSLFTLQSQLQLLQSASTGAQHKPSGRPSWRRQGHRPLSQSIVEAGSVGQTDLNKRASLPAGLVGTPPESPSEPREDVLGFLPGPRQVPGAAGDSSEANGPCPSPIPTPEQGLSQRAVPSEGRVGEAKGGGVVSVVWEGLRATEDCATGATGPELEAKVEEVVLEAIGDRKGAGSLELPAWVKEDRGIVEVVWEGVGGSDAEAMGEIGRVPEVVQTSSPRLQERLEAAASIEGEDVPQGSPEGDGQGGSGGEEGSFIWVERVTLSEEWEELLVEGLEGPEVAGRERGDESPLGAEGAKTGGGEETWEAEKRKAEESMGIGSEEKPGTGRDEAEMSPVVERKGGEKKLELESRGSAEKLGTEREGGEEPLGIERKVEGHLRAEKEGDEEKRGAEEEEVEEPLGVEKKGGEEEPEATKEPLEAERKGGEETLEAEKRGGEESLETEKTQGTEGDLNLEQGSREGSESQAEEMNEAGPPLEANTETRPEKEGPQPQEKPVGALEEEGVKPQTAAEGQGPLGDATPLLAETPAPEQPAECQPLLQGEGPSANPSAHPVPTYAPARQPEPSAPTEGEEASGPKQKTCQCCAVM
UniProt Q9NP74: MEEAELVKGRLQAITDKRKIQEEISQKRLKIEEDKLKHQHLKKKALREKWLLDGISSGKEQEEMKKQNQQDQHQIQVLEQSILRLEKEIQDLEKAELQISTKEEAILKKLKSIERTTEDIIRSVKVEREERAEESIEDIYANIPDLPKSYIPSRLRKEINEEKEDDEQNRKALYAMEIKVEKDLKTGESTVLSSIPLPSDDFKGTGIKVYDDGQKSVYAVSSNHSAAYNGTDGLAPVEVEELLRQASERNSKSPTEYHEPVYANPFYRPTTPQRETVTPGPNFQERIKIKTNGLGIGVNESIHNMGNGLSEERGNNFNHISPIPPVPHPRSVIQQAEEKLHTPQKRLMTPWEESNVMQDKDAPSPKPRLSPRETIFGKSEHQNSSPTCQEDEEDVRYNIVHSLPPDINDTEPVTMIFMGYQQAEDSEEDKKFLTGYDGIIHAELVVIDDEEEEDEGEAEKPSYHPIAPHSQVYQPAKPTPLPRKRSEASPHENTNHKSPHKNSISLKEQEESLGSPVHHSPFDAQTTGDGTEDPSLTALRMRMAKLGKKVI

pictilisib = compound: CS(=O)(=O)N1CCN(Cc2cc3nc(-c4cccc5[nH]ncc45)nc(N4CCOCC4)c3s2)CC1 [pictilisib]
Outline: as §1

crizotinib = compound: C[C@@H](Oc1cc(-c2cnn(C3CCNCC3)c2)cnc1N)c1c(Cl)ccc(F)c1Cl [crizotinib]
Outline: as §1

[1] = compound: C[C@H](C1=CC=C(C=C1)C(=O)NC2=C3C=CNC3=NC=C2)N
Outline: as §1

duvelisib = compound: C[C@H](Nc1ncnc2nc[nH]c12)c1cc2cccc(Cl)c2c(=O)n1-c1ccccc1 [duvelisib]
Outline: as §1

gandotinib = compound: Cc1cc(Nc2cc(CN3CCOCC3)c3nc(C)c(Cc4ccc(Cl)cc4F)n3n2)n[nH]1 [gandotinib]
Outline: as §1

tozasertib = compound: Cc1cc(Nc2cc(N3CCN(C)CC3)nc(Sc3ccc(NC(=O)C4CC4)cc3)n2)n[nH]1 [tozasertib]
Outline: as §1

doramapimod = compound: Cc1ccc(-n2nc(C(C)(C)C)cc2NC(=O)Nc2ccc(OCCN3CCOCC3)c3ccccc23)cc1 [doramapimod]
Outline: as §1

bafetinib = compound: Cc1ccc(NC(=O)c2ccc(CN3CC[C@H](N(C)C)C3)c(C(F)(F)F)c2)cc1Nc1nccc(-c2cncnc2)n1 [bafetinib]
Outline: as §1

[2] = compound: Cc1cccc(CC(=O)N2CCc3c2ccc(-c2cn(C)c4ncnc(N)c24)c3F)n1
Outline: as §1

nilotinib = compound: Cc1cn(-c2cc(NC(=O)c3ccc(C)c(Nc4nccc(-c5cccnc5)n4)c3)cc(C(F)(F)F)c2)cn1 [nilotinib]
Outline: as §1

[3] = compound: Cc1nc(Nc2n[nH]c3c2CN(C(=O)N[C@H](CN(C)C)c2ccccc2)C3(C)C)c2sccc2n1
Outline: as §1

dasatinib = compound: Cc1nc(Nc2ncc(C(=O)Nc3c(C)cccc3Cl)s2)cc(N2CCN(CCO)CC2)n1 [dasatinib]
Outline: as §1

[4] = compound: Cc1ncc(-c2ccnc(Nc3ccc(S(C)(=O)=O)cc3)n2)n1C(C)C
Outline: as §1

[5] = compound: Cn1cc(-c2ccc3c(c2)CCN3C(=O)Cc2cccc(C(F)(F)F)c2)c2c(N)ncnc21
Outline: as §1

quisinostat = compound: Cn1cc(CNCC2CCN(c3ncc(C(=O)NO)cn3)CC2)c2ccccc21 [quisinostat]
Outline: as §1

tipifarnib = compound: Cn1cncc1[C@@](N)(c1ccc(Cl)cc1)c1ccc2c(c1)c(-c1cccc(Cl)c1)cc(=O)n2C [tipifarnib]
Outline: as §1

[6] = compound: NC(=O)Nc1cc(-c2cccc(F)c2)sc1C(=O)N[C@H]1CCCNC1
Outline: as §1

[7] = compound: NC(=O)c1cnc(N[C@@H]2CCCC[C@@H]2N)nc1Nc1cccc(-n2nccn2)c1
Outline: as §1

[8] = compound: NC1(c2ccc(-c3nc4ccn5c(=O)[nH]nc5c4cc3-c3ccccc3)cc2)CCC1
Outline: as §1

Target	log2 fold change (lapatinib)	log2 fold change (pictilisib)	log2 fold change (crizotinib)	log2 fold change [1]	log2 fold change (duvelisib)	log2 fold change (gandotinib)	log2 fold change (tozasertib)	log2 fold change (doramapimod)	log2 fold change (bafetinib)	log2 fold change [2]	log2 fold change (nilotinib)	log2 fold change [3]	log2 fold change (dasatinib)	log2 fold change [4]	log2 fold change [5]	log2 fold change (quisinostat)	log2 fold change (tipifarnib)	log2 fold change [6]	log2 fold change [7]	log2 fold change [8]
NUP188 (UniProt Q5SRE5)	inactive: -0.063	inactive: -0.04	inactive: -0.05	inactive: -0.024	inactive: 0.004	inactive: -0.127	inactive: -0.012	inactive: -0.034	inactive: -0.031	inactive: 0.039	inactive: 0.025	inactive: -0.003	inactive: -0.074	inactive: -0.002	inactive: 0.055	inactive: -0.024	inactive: -0.047	inactive: 0.043	inactive: 0.03	inactive: 0.009
OTUD4 (UniProt Q01804)	inactive: -0.064	inactive: -0.012	inactive: -0.013	inactive: -0.083	inactive: -0.007	inactive: 0.001	inactive: -0.018	inactive: -0.041	inactive: -0.011	inactive: -0.021	inactive: -0.071	inactive: 0.032	inactive: 0.001	inactive: -0.012	inactive: -0.013	inactive: -0.034	inactive: 0.025	inactive: 0.041	inactive: -0.044	inactive: 0
OS9 (UniProt Q13438)	inactive: -0.013	inactive: 0.012	inactive: -0.008	inactive: -0.008	inactive: -0.015	inactive: 0.013	inactive: 0.007	inactive: 0.006	inactive: -0.002	inactive: 0.043	inactive: -0.003	inactive: -0.017	inactive: -0.007	inactive: 0	inactive: 0.019	inactive: -0.002	inactive: -0.03	inactive: -0.009	inactive: 0.007	inactive: -0.011
OARD1 (UniProt Q9Y530)	inactive: -0.001	inactive: -0.011	inactive: -0.003	inactive: -0.022	inactive: -0.015	inactive: -0.012	inactive: 0.042	inactive: 0.035	inactive: -0.023	inactive: 0.037	inactive: 0.015	inactive: 0.016	inactive: -0.031	inactive: 0.005	inactive: 0.071	inactive: -0.004	inactive: -0.014	inactive: 0.036	inactive: -0.009	inactive: -0.006
OMA1 (UniProt Q96E52)	inactive: 0.002	inactive: -0.013	inactive: -0.034	inactive: -0.015	inactive: 0.008	inactive: 0.061	inactive: 0.038	inactive: 0.004	inactive: -0.017	inactive: 0.075	inactive: 0.026	inactive: -0.024	inactive: -0.052	inactive: 0.048	inactive: 0.011	inactive: 0.004	inactive: 0.001	inactive: 0.012	inactive: -0.013	inactive: -0.031
NUP210 (UniProt Q8TEM1)	inactive: -0.074	inactive: -0.076	inactive: -0.028	inactive: -0.034	inactive: 0.013	inactive: -0.08	inactive: -0.012	inactive: -0.017	inactive: -0.007	inactive: 0.044	inactive: -0.019	inactive: -0.008	inactive: -0.08	inactive: 0.009	inactive: 0.001	inactive: 0.084	inactive: -0.043	inactive: -0.01	inactive: 0.059	inactive: -0.019
OSBPL9 isoform 2 (UniProt Q96SU4)	inactive: 0	inactive: -0.022	inactive: -0.015	inactive: -0.039	inactive: 0.001	inactive: -0.088	inactive: -0.122	inactive: -0.026	inactive: -0.044	inactive: 0.02	inactive: -0.032	inactive: 0.022	inactive: -0.044	inactive: -0.023	inactive: -0.002	inactive: -0.041	inactive: 0.013	inactive: 0.068	inactive: 0.028	inactive: 0.054
NUP88 (UniProt Q99567)	inactive: 0.001	inactive: -0.018	inactive: 0.034	inactive: -0.014	inactive: -0.003	inactive: -0.039	inactive: -0.012	inactive: -0.044	inactive: -0.007	inactive: 0.045	inactive: -0.021	inactive: 0.032	inactive: -0.012	inactive: 0	inactive: -0.015	inactive: 0.002	inactive: -0.086	inactive: 0.034	inactive: 0.017	inactive: 0.02
OXSM (UniProt Q9NWU1)	inactive: -0.04	inactive: -0.039	inactive: 0.013	inactive: -0.044	inactive: 0.006	inactive: 0.048	inactive: -0.066	inactive: -0.027	inactive: 0.009	inactive: -0.032	inactive: -0.012	inactive: -0.075	inactive: 0.016	inactive: 0.024	inactive: -0.002	inactive: 0.001	inactive: 0.016	inactive: 0.023	inactive: -0.035	inactive: -0.038
PAK1IP1 (UniProt Q9NWT1)	inactive: -0.042	inactive: -0.027	inactive: 0.03	inactive: -0.01	inactive: 0.026	inactive: 0.04	inactive: 0.028	inactive: 0.022	inactive: -0.044	inactive: 0	inactive: 0	inactive: -0.004	inactive: -0.01	inactive: 0.012	inactive: 0.033	inactive: -0.02	inactive: -0.008	inactive: 0.005	inactive: -0.019	inactive: -0.012
PAK2 (UniProt Q13177)	inactive: -0.005	inactive: 0.005	inactive: 0.054	inactive: 0.03	inactive: 0.003	inactive: -0.02	inactive: -0.03	inactive: -0.025	inactive: 0.035	inactive: -0.071	inactive: -0.011	inactive: 0.031	inactive: 0.023	inactive: 0.006	inactive: 0.002	inactive: 0.008	inactive: 0.031	inactive: -0.015	inactive: -0.017	inactive: 0.029
PANK1 (UniProt Q8TE04)	inactive: -0.008	inactive: 0.151	inactive: -0.018	inactive: 0.106	inactive: 0.099	active: -0.31	inactive: 0.069	inactive: 0.041	inactive: -0.062	inactive: -0.253	inactive: -0.005	inactive: 0.014	inactive: -0.028	inactive: -0.05	inactive: 0.053	inactive: -0.039	inactive: 0.079	inactive: 0.062	inactive: -0.007	inactive: 0.062
NUTF2 (UniProt P61970)	inactive: 0.055	inactive: -0.032	inactive: 0.007	inactive: 0.031	inactive: 0.025	inactive: -0.024	inactive: 0.006	inactive: -0.026	inactive: 0.015	inactive: -0.004	inactive: 0.024	inactive: -0.016	inactive: -0.017	inactive: -0.004	inactive: 0.041	inactive: 0.034	inactive: 0.042	inactive: -0.005	inactive: -0.093	inactive: 0.037
OXNAD1 (UniProt Q96HP4)	inactive: 0.004	inactive: -0.05	inactive: -0.039	inactive: 0.076	inactive: 0.022	inactive: -0.09	inactive: -0.006	inactive: 0.073	inactive: 0.059	inactive: 0.027	inactive: 0.024	inactive: 0.029	inactive: -0.017	inactive: -0.031	inactive: 0.06	inactive: -0.037	inactive: -0.008	inactive: 0.084	inactive: 0.017	inactive: 0.043
PALM3 (UniProt A6NDB9)	inactive: 0.048	inactive: -0.102	inactive: -0.004	inactive: -0.122	inactive: -0.019	inactive: 0.015	inactive: -0.038	inactive: 0.037	inactive: 0.053	inactive: 0.023	inactive: -0.02	inactive: 0.029	inactive: 0.031	inactive: 0.073	inactive: -0.004	inactive: 0.024	inactive: -0.033	inactive: 0.003	inactive: 0.033	inactive: 0.008
PALMD (UniProt Q9NP74)	inactive: 0.047	inactive: -0.071	inactive: 0.039	inactive: -0.056	inactive: 0.031	inactive: 0.051	inactive: -0.027	inactive: -0.001	inactive: 0.063	inactive: -0.041	inactive: -0.036	inactive: 0.061	inactive: 0.013	inactive: -0.037	inactive: 0.051	inactive: 0.016	inactive: -0.128	inactive: -0.013	inactive: 0	inactive: 0.084

Single entries from the entries so far:
OTUD4 (UniProt Q01804) – log2 fold change [2]: inactive: -0.021
NUP188 (UniProt Q5SRE5) – log2 fold change (tipifarnib): inactive: -0.047
